The source of these data is PMC8964110.

These are yes or no findings as the source states them, for the method shown. Binding seen in cells or lysates may run through a third protein. Here binding means that the protein was enriched with, or labelled near, the bait; the list need not be complete.

The chains are these.
B1: Calreticulin (protein, UniProt P83003 14-389)
chain: KVYFHETFENRDKWIDSTSSGKALGPFKIVSGKWYGDANNKGLQTSEDNKFYIAAAKLDEEFSNKDKNLIVQYNLKFEQGIDCGGGYIKLLPKKSIESEEKFTPESEYNIMFGPDVCGGSKRTHVIMNYKGKNNLIRKEIKCESDDISHLYTLIIRPNNTYVVKIDGVEKQEGKFDEDWDMLAPKEIDDPNVSKPADWVDEKEIDDPNDKKPEGWDDIPKTIVDPNAKKPEEWNDEDDGEWEAPTIENPEYKGEWKPKRIPNPAYKGEWVHPQIANPDYVYDPELYKYDSFAYIGIDVWQVKAGTIYDDILITDDIEEAEKEAKVILERNAAEKKMRDEIKEAEKQKEEEAKKEAEKQKEEETKEEIKKEENKEEL
B2: DEAD/DEAH box helicase (protein, UniProt C4LYI1 1-391)
chain: MASDIPTEQIESTVEAIQSFDAMGIKDELLRSIYSYGFEKPSAIQQRAIVPLMQGRNLIAQAQSGTGKTAAFSIGVLQQIDTNSKVCQAILLSPTRELALQTQEVVKNLSQYLDIKTFACIGGTSVRETIEALRNGVQVVVGTPGRVLDMLDRQAIDPNTVKYLILDEADEMLSQGFKDQMYTILKSLPSTVQVGMFSATMPADALDISKKFMENPVKILVKKEELTLEGIKQFYIDVVKDEYKIDTLIDLYQVISVNQSVIFCNSKNRVEWIQRRLQAHNYPVSITHGDLTMEERNNVLNEFRQGATRILITTDMLSRGIDVQQVSLVINFDMPVSDESYIHRIGRSARFGRKGVAIDFITTEEMDTINRLQKTYETKIVPLPKTFMDYL
B3: 3-oxo-5-alpha-steroid 4-dehydrogenase domain-containing protein (protein, UniProt C4M2S8 1-285)
chain: MVKILYKGNTYTVETELTKQVRELRFDIEKVVGLKACRQRLWYQKGEEKVVLEVDKTLQESGVTEDTPIEMKDLGAQLPFRFVYICEYVGPLALYVLIYLISLLAGYPSLLQNKLAVIMWVIHYIKRIVETIYVHEFGDMTMPVFNLYKNCTYYYGFAIAVAINVNFFPRENCSILIILGLIGMIVSIISNGYCHLLLKQLRTPGSQEWKMPHGFLFEYITCANYFCEIMTWIFFNVMTGFSFFGIAFSCCGIYQMREWAYQRHQKYLHMFPDYPKRWILIPFIY
B4: Filamin 2, putative (protein, UniProt C4LZ72 1-857)
chain: MSQPQWVLTQKKTFTKWANVQLSGAYVINDVETDLNDGLILISLFEALRKQKVQFRYNKKPKMRVAKLENTEQALNFIKADGVKLVNIDAQNIVDGNLTLILGLLWTLILKYQIAQNKMDASKNALLEWVNSKLTSRKIKNFSNDWNTGDVLNELIHALEPDFIDLADSASKGEGEERIQYGLSIAEDKMEIPAIIAAEDMALPEPDELSVMAYVSYFRHYEAEKEKRLGEAERLAREAELMRTPDPSKCVMSGPGLKTGEVLVPQEFTVTAKNCKGDQITQGGVTWNAHVFDPEGNEIPIEQKDNGDGTYDMTYVPQVPGKHKVEVAYEDKQLKQSPAIVMIEPAQADPENTYADGEGVEKCDAGKGPVKFTIHCVNKVGTAVPVTGAKFKVIIRSNDGNEIPHELVDNNDGTYTGSYVPVPGIDTVFITLLNQGIKGNPYQCKVFQDPSTACIGESYAFGPGVEGGVTIDKTPVFRIQGVTPEGKKCTKGGDEFKVEITDPEGKKQTAKVVDRHNGKYDVKYKAKVPGIYDVQVLLKNPENPEEFKDIKGSVYHPEIKDGVDAKKCVVDGEGIERPNDQEDNVFTIHAKNFKGEDVPVGGHPFQVIIDQVTESEKKKKKEGEKSSSSCSSSEEEEDDAEDEELFAFLNDGEEAEQGEEKAKEEGAEEPKEEEKKEVAEEEPKKEEEEKEEEKKEEGAEEPKEEIEGKKVAQKQQGSIPCTVIDNENGTYDVHYRAAAGKIRVKIELNKQRVGKSPYHLEVEEDADADESGVENFCFVVQAKNRRGQVQADGKAKFTVELDGPNGKLEEQKVKVKHLGEGKYFIRYSLPAEKGEYHINCKLNRRHIAGSPFKQTVN

In this assay the target is EhVps23 (E. histolytica (endogenous in HM1:IMSS trophozoites)). Description: affinity purification with mass spectrometry; immunoprecipitation with α-EhVps23 antibody and protein G-agarose from trophozoite lysates (10 mM Tris-HCl, 50 mM NaCl, protease inhibitors, freeze-thawing; pre-cleared with Protein-G, 2 h at 4°C); precipitate separated by gel electrophoresis, LC-ESI-HDMSE.
On to B1, for which the binding result is on record as “binds”.
With B2, the binding entry is “binds”.
Consider B3, for which the binding entry is listed as “binds”.
For B4 the value was “binds”.
